# According to the supplement of paper PMC12067093, “Discovery and optimisation of a covalent ligand for TRIM25 and its application to targeted protein ubiquitination” (Chemical Science, 2025):
# The chains behind the UniProt entries cited, without tags or fusion partners. Where a name states a change or a piece, a line headed by the entry shows the natural chain unless it says otherwise.
# UniProt Q9H871: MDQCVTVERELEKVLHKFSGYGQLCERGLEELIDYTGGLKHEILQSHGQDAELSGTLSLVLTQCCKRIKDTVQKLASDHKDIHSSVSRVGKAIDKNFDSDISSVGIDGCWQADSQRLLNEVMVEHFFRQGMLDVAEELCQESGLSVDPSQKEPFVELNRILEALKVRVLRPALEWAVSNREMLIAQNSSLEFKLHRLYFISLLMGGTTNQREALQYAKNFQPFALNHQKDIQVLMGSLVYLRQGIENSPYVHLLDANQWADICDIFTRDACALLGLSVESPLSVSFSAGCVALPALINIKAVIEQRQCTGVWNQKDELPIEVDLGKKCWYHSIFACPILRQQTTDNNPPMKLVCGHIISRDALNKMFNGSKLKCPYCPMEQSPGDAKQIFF
# UniProt Q04206, whole entry, looked up: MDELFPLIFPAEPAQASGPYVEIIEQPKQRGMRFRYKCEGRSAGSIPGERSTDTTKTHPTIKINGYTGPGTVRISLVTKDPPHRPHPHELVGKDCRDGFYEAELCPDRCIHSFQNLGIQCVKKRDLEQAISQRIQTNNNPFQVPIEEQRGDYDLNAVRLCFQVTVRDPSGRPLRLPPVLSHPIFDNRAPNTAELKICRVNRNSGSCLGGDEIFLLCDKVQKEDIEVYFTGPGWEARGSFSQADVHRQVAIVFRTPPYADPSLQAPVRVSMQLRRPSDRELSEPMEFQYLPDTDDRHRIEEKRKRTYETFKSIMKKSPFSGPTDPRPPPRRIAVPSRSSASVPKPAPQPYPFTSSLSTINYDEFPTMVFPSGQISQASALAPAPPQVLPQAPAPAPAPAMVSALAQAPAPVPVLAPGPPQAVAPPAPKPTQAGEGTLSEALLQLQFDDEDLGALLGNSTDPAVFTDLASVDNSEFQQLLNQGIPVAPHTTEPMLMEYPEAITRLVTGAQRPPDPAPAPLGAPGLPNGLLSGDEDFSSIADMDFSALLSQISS
# UniProt Q9Y508: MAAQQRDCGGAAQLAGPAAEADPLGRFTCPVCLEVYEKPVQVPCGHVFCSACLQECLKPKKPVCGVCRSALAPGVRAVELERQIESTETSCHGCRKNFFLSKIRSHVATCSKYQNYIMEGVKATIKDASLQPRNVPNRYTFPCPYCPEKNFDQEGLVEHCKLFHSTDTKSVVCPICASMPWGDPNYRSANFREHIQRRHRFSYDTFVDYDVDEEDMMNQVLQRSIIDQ
# UniProt Q9HBH5: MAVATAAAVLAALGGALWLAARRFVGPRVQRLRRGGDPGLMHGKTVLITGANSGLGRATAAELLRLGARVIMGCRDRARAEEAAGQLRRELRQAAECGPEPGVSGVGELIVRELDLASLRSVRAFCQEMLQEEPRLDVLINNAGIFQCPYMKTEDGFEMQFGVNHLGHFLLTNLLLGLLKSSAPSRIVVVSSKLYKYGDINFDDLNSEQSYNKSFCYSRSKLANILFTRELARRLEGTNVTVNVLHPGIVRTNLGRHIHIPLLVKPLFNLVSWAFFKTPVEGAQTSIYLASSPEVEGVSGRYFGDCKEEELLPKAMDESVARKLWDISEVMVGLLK
# UniProt Q8TC12: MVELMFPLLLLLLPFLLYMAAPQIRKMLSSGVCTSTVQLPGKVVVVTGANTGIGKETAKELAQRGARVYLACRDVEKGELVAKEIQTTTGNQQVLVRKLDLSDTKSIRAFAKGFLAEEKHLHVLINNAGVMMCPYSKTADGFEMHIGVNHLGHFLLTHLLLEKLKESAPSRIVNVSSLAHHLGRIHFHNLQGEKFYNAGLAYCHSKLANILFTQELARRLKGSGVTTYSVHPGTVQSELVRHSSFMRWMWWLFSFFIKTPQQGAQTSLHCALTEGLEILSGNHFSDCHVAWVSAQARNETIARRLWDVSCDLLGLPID
# UniProt P46063: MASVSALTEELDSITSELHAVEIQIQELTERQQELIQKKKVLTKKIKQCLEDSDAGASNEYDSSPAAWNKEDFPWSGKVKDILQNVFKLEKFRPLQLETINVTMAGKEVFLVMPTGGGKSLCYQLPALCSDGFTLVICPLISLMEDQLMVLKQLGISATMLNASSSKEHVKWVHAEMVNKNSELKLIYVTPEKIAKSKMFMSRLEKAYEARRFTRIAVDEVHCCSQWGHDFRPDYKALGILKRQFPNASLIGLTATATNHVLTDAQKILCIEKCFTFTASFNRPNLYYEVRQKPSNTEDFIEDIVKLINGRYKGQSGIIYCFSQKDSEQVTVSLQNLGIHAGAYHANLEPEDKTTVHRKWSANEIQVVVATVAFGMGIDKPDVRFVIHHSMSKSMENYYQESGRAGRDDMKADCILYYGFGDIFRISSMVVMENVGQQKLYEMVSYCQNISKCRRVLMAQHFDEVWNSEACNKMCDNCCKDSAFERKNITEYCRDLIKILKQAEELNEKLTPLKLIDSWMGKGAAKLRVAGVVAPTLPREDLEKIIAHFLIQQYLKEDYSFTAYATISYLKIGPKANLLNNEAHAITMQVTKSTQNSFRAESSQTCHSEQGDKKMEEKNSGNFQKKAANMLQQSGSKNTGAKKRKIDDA
# UniProt Q13129: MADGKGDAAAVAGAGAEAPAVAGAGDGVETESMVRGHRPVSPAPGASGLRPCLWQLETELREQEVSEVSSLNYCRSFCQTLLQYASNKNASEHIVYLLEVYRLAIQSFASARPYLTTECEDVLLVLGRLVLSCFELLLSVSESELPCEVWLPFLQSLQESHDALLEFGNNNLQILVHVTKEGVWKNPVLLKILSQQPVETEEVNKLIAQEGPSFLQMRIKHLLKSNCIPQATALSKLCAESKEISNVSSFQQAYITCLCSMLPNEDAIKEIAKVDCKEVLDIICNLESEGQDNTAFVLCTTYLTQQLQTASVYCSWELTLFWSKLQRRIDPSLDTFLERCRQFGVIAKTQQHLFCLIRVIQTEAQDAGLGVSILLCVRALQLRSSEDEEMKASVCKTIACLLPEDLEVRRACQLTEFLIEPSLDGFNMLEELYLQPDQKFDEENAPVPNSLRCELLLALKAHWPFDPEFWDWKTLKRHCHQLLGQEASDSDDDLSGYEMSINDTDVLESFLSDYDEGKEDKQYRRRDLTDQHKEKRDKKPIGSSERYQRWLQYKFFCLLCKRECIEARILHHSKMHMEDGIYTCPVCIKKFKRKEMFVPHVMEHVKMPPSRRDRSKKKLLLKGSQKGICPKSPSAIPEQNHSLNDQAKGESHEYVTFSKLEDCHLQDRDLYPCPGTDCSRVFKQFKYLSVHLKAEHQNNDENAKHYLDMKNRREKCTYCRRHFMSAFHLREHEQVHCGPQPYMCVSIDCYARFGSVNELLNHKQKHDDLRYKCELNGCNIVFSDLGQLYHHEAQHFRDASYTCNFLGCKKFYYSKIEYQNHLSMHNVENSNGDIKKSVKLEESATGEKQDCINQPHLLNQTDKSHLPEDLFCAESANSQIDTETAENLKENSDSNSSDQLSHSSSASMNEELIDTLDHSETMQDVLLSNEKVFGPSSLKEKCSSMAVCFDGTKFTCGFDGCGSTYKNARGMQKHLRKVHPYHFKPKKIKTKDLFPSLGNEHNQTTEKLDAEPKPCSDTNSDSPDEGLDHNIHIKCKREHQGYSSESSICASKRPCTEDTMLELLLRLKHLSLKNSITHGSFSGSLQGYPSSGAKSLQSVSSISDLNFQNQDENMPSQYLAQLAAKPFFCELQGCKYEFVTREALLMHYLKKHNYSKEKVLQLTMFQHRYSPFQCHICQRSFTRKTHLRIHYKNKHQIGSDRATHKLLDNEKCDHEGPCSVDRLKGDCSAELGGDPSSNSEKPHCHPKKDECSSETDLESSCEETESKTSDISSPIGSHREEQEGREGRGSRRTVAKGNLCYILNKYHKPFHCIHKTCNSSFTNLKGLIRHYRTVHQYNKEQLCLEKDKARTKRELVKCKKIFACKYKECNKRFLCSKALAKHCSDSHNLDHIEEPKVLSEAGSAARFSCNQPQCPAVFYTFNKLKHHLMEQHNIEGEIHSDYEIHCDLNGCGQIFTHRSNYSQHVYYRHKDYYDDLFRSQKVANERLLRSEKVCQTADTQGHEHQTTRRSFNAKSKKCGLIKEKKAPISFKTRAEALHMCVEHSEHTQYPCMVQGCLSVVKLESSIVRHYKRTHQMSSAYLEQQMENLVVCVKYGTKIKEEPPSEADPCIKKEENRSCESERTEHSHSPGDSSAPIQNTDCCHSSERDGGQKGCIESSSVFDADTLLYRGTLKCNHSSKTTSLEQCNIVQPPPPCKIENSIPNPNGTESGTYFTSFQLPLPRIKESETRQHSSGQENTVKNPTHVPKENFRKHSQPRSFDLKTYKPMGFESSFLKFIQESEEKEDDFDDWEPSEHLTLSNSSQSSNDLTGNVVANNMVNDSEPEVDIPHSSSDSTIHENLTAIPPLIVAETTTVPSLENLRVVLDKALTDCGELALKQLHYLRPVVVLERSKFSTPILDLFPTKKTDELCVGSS
# UniProt Q9H920: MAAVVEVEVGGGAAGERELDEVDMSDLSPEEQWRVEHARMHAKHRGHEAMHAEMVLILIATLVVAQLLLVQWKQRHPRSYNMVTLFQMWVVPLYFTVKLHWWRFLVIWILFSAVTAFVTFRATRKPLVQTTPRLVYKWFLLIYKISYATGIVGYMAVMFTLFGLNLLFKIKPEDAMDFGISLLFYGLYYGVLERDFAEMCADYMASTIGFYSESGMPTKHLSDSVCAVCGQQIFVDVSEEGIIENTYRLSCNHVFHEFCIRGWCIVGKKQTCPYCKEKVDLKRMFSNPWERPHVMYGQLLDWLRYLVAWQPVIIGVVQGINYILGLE
# UniProt P40937, whole entry, looked up: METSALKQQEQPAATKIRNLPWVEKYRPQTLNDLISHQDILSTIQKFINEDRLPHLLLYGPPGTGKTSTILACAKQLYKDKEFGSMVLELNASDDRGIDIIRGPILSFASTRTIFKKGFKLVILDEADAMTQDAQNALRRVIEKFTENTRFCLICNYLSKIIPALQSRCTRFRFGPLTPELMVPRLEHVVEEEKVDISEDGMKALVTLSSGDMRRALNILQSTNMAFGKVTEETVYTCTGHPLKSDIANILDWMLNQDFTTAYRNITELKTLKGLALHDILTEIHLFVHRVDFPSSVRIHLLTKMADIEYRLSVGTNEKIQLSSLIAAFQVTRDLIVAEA
# UniProt O94761: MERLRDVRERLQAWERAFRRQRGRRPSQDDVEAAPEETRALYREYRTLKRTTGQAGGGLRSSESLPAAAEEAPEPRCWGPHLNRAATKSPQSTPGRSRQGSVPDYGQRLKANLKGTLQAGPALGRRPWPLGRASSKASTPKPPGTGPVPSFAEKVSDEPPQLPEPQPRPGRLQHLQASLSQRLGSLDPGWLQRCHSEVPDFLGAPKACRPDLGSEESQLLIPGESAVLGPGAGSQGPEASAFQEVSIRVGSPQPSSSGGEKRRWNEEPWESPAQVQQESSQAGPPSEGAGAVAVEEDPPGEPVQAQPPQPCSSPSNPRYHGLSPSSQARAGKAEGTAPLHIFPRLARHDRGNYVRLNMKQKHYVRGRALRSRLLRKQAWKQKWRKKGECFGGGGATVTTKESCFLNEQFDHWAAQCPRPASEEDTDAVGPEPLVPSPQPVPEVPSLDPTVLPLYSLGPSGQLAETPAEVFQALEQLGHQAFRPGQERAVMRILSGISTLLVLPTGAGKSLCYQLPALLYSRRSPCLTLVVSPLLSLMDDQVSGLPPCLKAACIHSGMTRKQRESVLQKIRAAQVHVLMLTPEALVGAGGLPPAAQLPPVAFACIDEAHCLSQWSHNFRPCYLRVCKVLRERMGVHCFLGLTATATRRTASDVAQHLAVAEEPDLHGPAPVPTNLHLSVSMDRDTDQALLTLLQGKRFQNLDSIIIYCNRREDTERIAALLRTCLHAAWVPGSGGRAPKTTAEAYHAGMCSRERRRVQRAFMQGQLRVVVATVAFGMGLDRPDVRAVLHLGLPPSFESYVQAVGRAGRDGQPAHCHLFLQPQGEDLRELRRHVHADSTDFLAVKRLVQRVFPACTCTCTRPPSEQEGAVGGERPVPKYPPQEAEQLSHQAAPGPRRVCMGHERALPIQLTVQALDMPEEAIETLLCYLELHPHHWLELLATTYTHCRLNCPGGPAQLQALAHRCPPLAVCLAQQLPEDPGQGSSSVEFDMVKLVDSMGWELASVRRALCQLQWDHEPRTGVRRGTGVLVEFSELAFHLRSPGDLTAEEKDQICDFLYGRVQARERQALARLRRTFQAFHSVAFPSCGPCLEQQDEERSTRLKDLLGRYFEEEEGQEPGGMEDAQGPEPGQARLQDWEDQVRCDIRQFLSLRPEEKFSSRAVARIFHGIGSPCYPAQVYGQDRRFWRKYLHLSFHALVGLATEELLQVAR
# Some of the results follow.
# Compound: CC1Cc2ccccc2N1C(=O)C1CCCN(C1)C(=O)CCl (mixture of isomers) [TRIM25 ligand 11 (diastereomer mixture)]
# Experiment: probe-labelled cysteine peptide fold change vs DMSO (competition) (log2 fold change); higher = less target engagement (more negative = stronger competition)
# Conditions: 50 µM; THP-1; incubation time: 4 h
# 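Also: competitive chemoproteomic profiling in live THP-1 cells with an iodoacetamide desthiobiotin (IA-DTB) probe, comparing probe-labelled peptide intensities in compound-treated cells against DMSO-treated controls.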
row,Target,probe-labelled cysteine peptide fold change
1,RHOT1_Q8IXI2_421_CNVIGVK (UniProt Q8IXI2),0.209
2,RNF123_Q5XPI4_1277_ACINQHLMNNK (UniProt Q5XPI4),-0.121
3,RECQL5_O94762_188_LGHAPCVALTATATPQVQEDVFAALHLK (UniProt O94762),-0.156
4,RMND5A_Q9H871_4_MDQCVTVER (UniProt Q9H871),-0.00637
5,RENBP_P51606_400_CLAMCEEMLGALLSR (UniProt P51606),0.34
6,REST_Q13127_945_HQTDSIVCEMK (UniProt Q13127),-0.334
7,RELA_Q04206_109_CIHSFQNLGIQCVK (UniProt Q04206),-0.156
8,RFC4_P35249_48_CVDEVAFQEEVVAVLKK (UniProt P35249),-0.325
9,RNF114_Q9Y508_64+67_KPVCGVCR (UniProt Q9Y508),-0.165
10,RHBDF2_Q6PJF5_181_DLELPSQEAPSFQGTESPKPCK (UniProt Q6PJF5),-0.26
11,RDH14_Q9HBH5_97_QAAECGPEPGVSGVGELIVR (UniProt Q9HBH5),-0.104
12,RNF114_Q9Y508_160_NFDQEGLVEHCK (UniProt Q9Y508),0.0072
13,RELA_Q04206_160_LCFQVTVR (UniProt Q04206),0.0676
14,REPIN1_Q9BWE0_433+436_VHSGERPFACEECGR (UniProt Q9BWE0),0.0948
15,RDH11_Q8TC12_33_MLSSGVCTSTVQLPGK (UniProt Q8TC12),0.427
16,RECQL_P46063_321_YKGQSGIIYCFSQK (UniProt P46063),-0.27
17,REPS1_Q96D71_344_DGALTLDEFCAAFHLVVAR (UniProt Q96D71),0.109
18,RING1_Q06587_48+51_SLHSELMCPICLDMLK (UniProt Q06587),-0.248

row,Target,probe-labelled cysteine peptide fold change
1,RECQL_P46063_606_AESSQTCHSEQGDK (UniProt P46063),-0.0193
2,RLF_Q13129_663_LEDCHLQDR (UniProt Q13129),0.0205
3,RECQL_P46063_321_GQSGIIYCFSQK (UniProt P46063),0.131
4,RNF121_Q9H920_251_LSCNHVFHEFCIR (UniProt Q9H920),0.512
5,RFC5_P40937_73_TSTILACAK (UniProt P40937),-0.0904
6,RECK_O95980_902_ALQIEACNK (UniProt O95980),-0.0638
7,RFTN1_Q14699_211_PGTGDVCSAPAGR (UniProt Q14699),-0.0419
8,RLF_Q13129_851_QDCINQPHLLNQTDK (UniProt Q13129),-0.235
9,RIPK3_Q9Y572_365_KCPSLTK (UniProt Q9Y572),-0.0663
10,RGS14_O43566_183_ECLLAEAEGRPLREPGSSR (UniProt O43566),0.0993
11,RMDN3_Q96TC7_288_AYSDMCELTEEVSEKK (UniProt Q96TC7),-0.0193
12,RMND5A_Q9H871_328_CWYHSIFACPILR (UniProt Q9H871),0.162
13,RLF_Q13129_400_TIACLLPEDLEVR (UniProt Q13129),0.0499
14,RECQL4_O94761_1008_ALCQLQWDHEPR (UniProt O94761),0.0441
15,RHOT2_Q8IXI1_504_SFAHCASVYK (UniProt Q8IXI1),-0.0637
16,RMND5A_Q9H871_308_QCTGVWNQK (UniProt Q9H871),0.0699
17,RECQL_P46063_414_ADCILYYGFGDIFR (UniProt P46063),0.18
18,RECQL4_O94761_897_RVCMGHER (UniProt O94761),-0.156

# Reprinted from the results shown (2 entries):
row,Target,probe-labelled cysteine peptide fold change
12,RNF114_Q9Y508_160_NFDQEGLVEHCK (UniProt Q9Y508),0.0072
13,RELA_Q04206_160_LCFQVTVR (UniProt Q04206),0.0676
